B1: cph2a (N390): first 390 amino acid residues of Cph2 (SLL0821), N-terminal phytochrome-related domain (protein, UniProt Q55434 1-390, looked up, fragment)
chain: MNPNRSLEDFLRNVINKFHRALTLRETLQVIVEEARIFLGVDRVKIYKFASDGSGEVLAEAVNRAALPSLLGLHFPVEDIPPQAREELGNQRKMIAVDVAHRRKKSHELSGRISPTEHSNGHYTTVDSCHIQYLLAMGVLSSLTVPVMQDQQLWGIMAVHHSKPRRFTEQEWETMALLSKEVSLAITQSQLSRQVHQQQVQEALVQRLETTVAQYGDRPETWQYALETVGQAVEADGAVLYIAPDLTGSVAQHYQWNLRFDWGNWLETSLWQELMRGQPSAAMEPMAAVQSTWEKPRPFTSVAPLPPTNCVPHGYTLGELEQRSDWIAPPESLSAENFQSFLIVPLAADQQWVGSLILLRKEKSLVKHWAGKRGIDRRNILPRLSFEAWE
B2: Cph2-N197: Strep-Tagged N-terminal 197 amino acid region of Cph2 (SEQ ID NO: 9), module 1 only (protein)
chain: KLAVRAISRLQSLPGGDIGALCDTVVEDVQRLTGYDRVMVYQFHEDDHGEVVSEIRRSDLEPYLGLHYPATDIPQAARFLFKQNRVRMICDCNATPVKVVQSEELKRPLCLVNSTLRAPHGCHTQYMANMGSVASLALAIVVKGKDSSKLWGLVVGHHCSPRYVPFPLRYACEFLMQAFGLQLQMELQLASQLAEK
modifications: Strep-Tag
B3: Cph1 (N514) Wild Type: N514 deletion mutant of Synechocystis sp. PCC 6803 apophytochrome Cph1, wild-type sequence (protein, UniProt Q55168 1-514, looked up, fragment)
chain: MATTVQLSDQSLRQLETLAIHTAHLIQPHGLVVVLQEPDLTISQISANCTGILGRSPEDLLGRTLGEVFDSFQIDPIQSRLTAGQISSLNPSKLWARVMGDDFVIFDGVFHRNSDGLLVCELEPAYTSDNLPFLGFYHMANAALNRLRQQANLRDFYDVIVEEVRRMTGFDRVMLYRFDENNHGDVIAEDKRDDMEPYLGLHYPESDIPQPARRLFIHNPIRVIPDVYGVAVPLTPAVNPSTNRAVDLTESILRSAYHCHLTYLKNMGVGASLTISLIKDGHLWGLIACHHQTPKVIPFELRKACEFFGRVVFSNISAQEDTETFDYRVQLAEHEAVLLDKMTTAADFVEGLTNHPDRLLGLTGSQGAAICFGEKLILVGETPDEKAVQYLLQWLENREVQDVFFTSSLSQIYPDAVNFKSVASGLLAIPIARHNFLLWFRPEVLQTVNWGGDPNHAYEATQEDGKIELHPRQSFDLWKEIVRLQSLPWQSVEIQSALALKKAIVNLILRQAEE
B4: Cph1 (N514) DR171/2AA: double mutant D171A/R172A of Cph1 (N514) (protein, UniProt Q55168 1-514, looked up, variant D171A R172A)
chain: MATTVQLSDQSLRQLETLAIHTAHLIQPHGLVVVLQEPDLTISQISANCTGILGRSPEDLLGRTLGEVFDSFQIDPIQSRLTAGQISSLNPSKLWARVMGDDFVIFDGVFHRNSDGLLVCELEPAYTSDNLPFLGFYHMANAALNRLRQQANLRDFYDVIVEEVRRMTGFAAVMLYRFDENNHGDVIAEDKRDDMEPYLGLHYPESDIPQPARRLFIHNPIRVIPDVYGVAVPLTPAVNPSTNRAVDLTESILRSAYHCHLTYLKNMGVGASLTISLIKDGHLWGLIACHHQTPKVIPFELRKACEFFGRVVFSNISAQEDTETFDYRVQLAEHEAVLLDKMTTAADFVEGLTNHPDRLLGLTGSQGAAICFGEKLILVGETPDEKAVQYLLQWLENREVQDVFFTSSLSQIYPDAVNFKSVASGLLAIPIARHNFLLWFRPEVLQTVNWGGDPNHAYEATQEDGKIELHPRQSFDLWKEIVRLQSLPWQSVEIQSALALKKAIVNLILRQAEE
modifications: N514 fragment
B5: Cph1 (N514) R222G: site-directed single mutant R222G of Cph1 (N514) (protein, UniProt Q55168 1-514, looked up, variant R222G)
chain: MATTVQLSDQSLRQLETLAIHTAHLIQPHGLVVVLQEPDLTISQISANCTGILGRSPEDLLGRTLGEVFDSFQIDPIQSRLTAGQISSLNPSKLWARVMGDDFVIFDGVFHRNSDGLLVCELEPAYTSDNLPFLGFYHMANAALNRLRQQANLRDFYDVIVEEVRRMTGFDRVMLYRFDENNHGDVIAEDKRDDMEPYLGLHYPESDIPQPARRLFIHNPIGVIPDVYGVAVPLTPAVNPSTNRAVDLTESILRSAYHCHLTYLKNMGVGASLTISLIKDGHLWGLIACHHQTPKVIPFELRKACEFFGRVVFSNISAQEDTETFDYRVQLAEHEAVLLDKMTTAADFVEGLTNHPDRLLGLTGSQGAAICFGEKLILVGETPDEKAVQYLLQWLENREVQDVFFTSSLSQIYPDAVNFKSVASGLLAIPIARHNFLLWFRPEVLQTVNWGGDPNHAYEATQEDGKIELHPRQSFDLWKEIVRLQSLPWQSVEIQSALALKKAIVNLILRQAEE
modifications: N514 fragment
B6: Cph1 (N514) D171A: site-directed single mutant D171A of Cph1 (N514) (protein, UniProt Q55168 1-514, looked up, variant D171A)
chain: MATTVQLSDQSLRQLETLAIHTAHLIQPHGLVVVLQEPDLTISQISANCTGILGRSPEDLLGRTLGEVFDSFQIDPIQSRLTAGQISSLNPSKLWARVMGDDFVIFDGVFHRNSDGLLVCELEPAYTSDNLPFLGFYHMANAALNRLRQQANLRDFYDVIVEEVRRMTGFARVMLYRFDENNHGDVIAEDKRDDMEPYLGLHYPESDIPQPARRLFIHNPIRVIPDVYGVAVPLTPAVNPSTNRAVDLTESILRSAYHCHLTYLKNMGVGASLTISLIKDGHLWGLIACHHQTPKVIPFELRKACEFFGRVVFSNISAQEDTETFDYRVQLAEHEAVLLDKMTTAADFVEGLTNHPDRLLGLTGSQGAAICFGEKLILVGETPDEKAVQYLLQWLENREVQDVFFTSSLSQIYPDAVNFKSVASGLLAIPIARHNFLLWFRPEVLQTVNWGGDPNHAYEATQEDGKIELHPRQSFDLWKEIVRLQSLPWQSVEIQSALALKKAIVNLILRQAEE
modifications: N514 fragment
B7: Cph1 (N514) DR171/2AG: double mutant D171A/R172G of Cph1 (N514) (protein, UniProt Q55168 1-514, looked up, variant D171A R172G)
chain: MATTVQLSDQSLRQLETLAIHTAHLIQPHGLVVVLQEPDLTISQISANCTGILGRSPEDLLGRTLGEVFDSFQIDPIQSRLTAGQISSLNPSKLWARVMGDDFVIFDGVFHRNSDGLLVCELEPAYTSDNLPFLGFYHMANAALNRLRQQANLRDFYDVIVEEVRRMTGFAGVMLYRFDENNHGDVIAEDKRDDMEPYLGLHYPESDIPQPARRLFIHNPIRVIPDVYGVAVPLTPAVNPSTNRAVDLTESILRSAYHCHLTYLKNMGVGASLTISLIKDGHLWGLIACHHQTPKVIPFELRKACEFFGRVVFSNISAQEDTETFDYRVQLAEHEAVLLDKMTTAADFVEGLTNHPDRLLGLTGSQGAAICFGEKLILVGETPDEKAVQYLLQWLENREVQDVFFTSSLSQIYPDAVNFKSVASGLLAIPIARHNFLLWFRPEVLQTVNWGGDPNHAYEATQEDGKIELHPRQSFDLWKEIVRLQSLPWQSVEIQSALALKKAIVNLILRQAEE
modifications: N514 fragment

Experiment: Photochemical activity / spectral properties of PCB adducts (photoreversibility, difference spectrum)
Conditions: for Photoreveribility / Difference Spectrum: PCB adducts of site-directed mutants of Cph1 (N514)
Excerpt: This work thus confirms that the structural motif illustrated in FIG. 2 represents the bilin-binding domain of the ‘phytochrome superfamily’ from which new phytofluors of different colors can be devised.
Based on the multiple sequence alignment shown in FIG. 2, and using methods described in W098/04700, a bacterial expression vector express a Strep-Tagged version of N-terminal 197 amino acid region of Cph2 (Cph2-N197) that encompassed ‘module 1’ only was constructed (see, FIG. 3).
To address the importance of conserved residues in the bilin lyase domain of Cph1 to bilin attachment and spectral properties of its bilin adducts, site-directed mutagenesis of some of these residues were undertaken. Charged residues D171, R172, E189 and R222 of Cph1 (N514) were mutagenized in the initial studies.

Molecule | Photoreveribility | Difference Spectrum | further results
B1 | – | – | photochemical activity of species formed upon incubation with PCB: photochemically active; photochemical activity of species formed upon incubation with PCB (listed as Cph2): red, far-red photoreversible
B2 | – | – | optical properties of purified PCB adduct (purified PCB-Cph2 adduct): phytochrome-like optical properties including a red minus far-red difference spectra
B3 | yes | – | photochemical activity of species formed upon incubation with PCB: photochemically active
B4 | no | none | –
B5 | yes | blue shifted | –
B6 | yes | – | –
B7 | no | none | –
